Measurements taken from PMC8041807.
These are yes or no findings as the source states them, for the method shown. In cells and extracts the contact can be indirect. Some results given as binding are weak or reduced against the parent protein; the word gives no strength. Sequences can lack the tags named with a protein.

Amino acid sequences for entries named in this document (tags omitted).
UniProt P51149: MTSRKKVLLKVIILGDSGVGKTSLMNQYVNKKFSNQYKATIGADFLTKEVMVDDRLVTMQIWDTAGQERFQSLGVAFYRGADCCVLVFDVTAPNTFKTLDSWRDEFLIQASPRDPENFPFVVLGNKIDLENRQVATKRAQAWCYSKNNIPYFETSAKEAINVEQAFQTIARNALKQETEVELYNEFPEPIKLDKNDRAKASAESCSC

T1: FLAG-TRIM39 (human) (UniProt Q9HCM9)
T1 sequence: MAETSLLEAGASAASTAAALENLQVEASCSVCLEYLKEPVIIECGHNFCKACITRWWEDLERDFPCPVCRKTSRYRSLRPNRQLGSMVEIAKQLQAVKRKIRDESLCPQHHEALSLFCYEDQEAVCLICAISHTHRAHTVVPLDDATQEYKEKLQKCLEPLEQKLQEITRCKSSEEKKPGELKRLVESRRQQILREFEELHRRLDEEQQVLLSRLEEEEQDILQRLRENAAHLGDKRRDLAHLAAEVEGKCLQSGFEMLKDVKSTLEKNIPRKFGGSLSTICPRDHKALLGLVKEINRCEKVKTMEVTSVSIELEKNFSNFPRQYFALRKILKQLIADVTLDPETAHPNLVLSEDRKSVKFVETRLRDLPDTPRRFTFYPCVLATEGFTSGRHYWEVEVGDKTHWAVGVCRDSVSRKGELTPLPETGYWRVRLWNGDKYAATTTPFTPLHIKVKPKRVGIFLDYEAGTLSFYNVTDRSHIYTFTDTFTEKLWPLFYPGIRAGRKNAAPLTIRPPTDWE


Assays:
FLAG-TRIM39 (human) = biological target: T1, FLAG-TRIM39 (human); assay: co-IP; HEK293T transfected with FLAG-TRIM39 for 48 h; total cell lysates immunoprecipitated with anti-FLAG or anti-Rab7 antibodies; western blot
[1] = biological target: Rab7A (human (endogenous in HEK293T, LoVo, HCT116)) (UniProt P51149); assay: as above

Row | binding (FLAG-TRIM39 (human)) | binding [1] | Molecule
1 | binds |  | Rab7A (from UniProt P51149 1-207)
2 |  | binds | FLAG-TRIM39 (protein, UniProt Q9HCM9 1-518) MAETSLLEAGASAASTAAALENLQVEASCSVCLEYLKEPVIIECGHNFCKACITRWWEDLERDFPCPVCRKTSRYRSLRPNRQLGSMVEIAKQLQAVKRKIRDESLCPQHHEALSLFCYEDQEAVCLICAISHTHRAHTVVPLDDATQEYKEKLQKCLEPLEQKLQEITRCKSSEEKKPGELKRLVESRRQQILREFEELHRRLDEEQQVLLSRLEEEEQDILQRLRENAAHLGDKRRDLAHLAAEVEGKCLQSGFEMLKDVKSTLEKNIPRKFGGSLSTICPRDHKALLGLVKEINRCEKVKTMEVTSVSIELEKNFSNFPRQYFALRKILKQLIADVTLDPETAHPNLVLSEDRKSVKFVETRLRDLPDTPRRFTFYPCVLATEGFTSGRHYWEVEVGDKTHWAVGVCRDSVSRKGELTPLPETGYWRVRLWNGDKYAATTTPFTPLHIKVKPKRVGIFLDYEAGTLSFYNVTDRSHIYTFTDTFTEKLWPLFYPGIRAGRKNAAPLTIRPPTDWE
